Source: PubChem BioAssay AID1439 (NMMLSC, 2008)
Out of some 220,000 compounds screened, about 770 (0.35%) were called active. The shares of active, inactive and inconclusive entries below differ from those in the screen. Cut-off read from the data, not from the text of the source: active = binding response below about 49% or above about 150%; inconclusive = no clear call, values can overlap the other calls; inactive = in between.

Protein sequences, listed by entry. Tags and fused reporters are not part of them.
UniProt P09471, whole entry, looked up: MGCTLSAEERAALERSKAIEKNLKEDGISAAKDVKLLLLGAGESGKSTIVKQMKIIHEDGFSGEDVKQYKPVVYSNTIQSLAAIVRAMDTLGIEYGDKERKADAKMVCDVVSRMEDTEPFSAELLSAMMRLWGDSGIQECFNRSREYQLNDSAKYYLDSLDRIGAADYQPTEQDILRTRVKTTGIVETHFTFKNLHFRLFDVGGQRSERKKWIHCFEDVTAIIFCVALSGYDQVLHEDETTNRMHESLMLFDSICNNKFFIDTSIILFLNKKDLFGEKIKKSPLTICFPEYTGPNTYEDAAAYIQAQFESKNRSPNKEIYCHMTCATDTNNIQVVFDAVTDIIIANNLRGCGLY

target: Guanine nucleotide-binding protein G(o) subunit alpha (Homo sapiens) (UniProt P09471); assay: RGS7-Galphao binding modulators, primary screen, biochemical, multiplexed bead flow cytometry (AID 1439); details: at 10 µM, actives lie on both sides;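 note: fluorescent Galphao held in activated GDP-AlF4 state binding bead-coupled RGS7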

Row | Structure (SMILES) | binding response (% of control)
1 | O=C(COC(=O)Cc1ccccc1[N+](=O)[O-])NC1CCCC1 | inconclusive: 80.5%
2 | Cc1cc2c(sc3ccccc32)c(C)n1 | inconclusive: 102%
3 | O=C(NNC(=O)c1csc(-c2cccnc2)n1)c1ccccc1 | inconclusive: 247%
4 | Cc1c(CBr)[n+](=O)c2c(n1[O-])C(Br)CCC2Br (configuration not stated) | inconclusive: 160%
5 | CCOC(=O)c1[nH]c(C)c(C(=O)Nc2ccc(C)c(Cl)c2)c1C | inactive: 110%
6 | CCOC(=O)c1cc2c(=O)n3ccccc3nc2n(Cc2ccco2)c1=NC(=O)c1ccccc1OC | inconclusive: 70.4%
7 | CCCCCCC[C@H](N)[C@H](O)C(=O)N(C)[C@@H](CCS(C)=O)C(=O)N[C@@H](Cc1ccc(O)cc1)C(=O)N[C@@H](Cc1ccc(O)cc1)C(=O)O (some centres not stated) | inconclusive: 116%
8 | C=C(C)c1cccc(C(C)(C)NC(=O)NCCCn2ccnc2)c1 | inactive: 103%
9 | CCN(CC)CCOC(=O)c1cccc2c1-c1ccccc1C2O (configuration not stated) | inconclusive: 102%
10 | COc1ccccc1-c1nc2ccccc2c(=O)n1NC(=O)c1cccs1 | inactive: 100%
11 | O=C(NC1CCN(Cc2ccccc2)CC1)c1ccc2c(c1)[nH]c(=O)n2Cc1ccc(F)cc1 | inactive: 99.5%
12 | N#C/C(=C\c1cccs1)C(=O)N1CCOCC1 | inconclusive: 178%
13 | Cc1ccc(C)c(N2N=C(C(=O)O)CCC2=O)c1 | inconclusive: 112%
14 | COCCN1CCn2c(nc3cc([N+](=O)[O-])ccc32)C1 | inconclusive: 102%
15 | CCOC(=O)CCn1nc(-c2ccc(Cl)cc2)cc1N | inactive: 107%
16 | CCSc1nc(=S)cc(C)[nH]1 | inconclusive: 99.5%
17 | CCc1ccn2cc(-c3ccc4c(c3)OCO4)nc2c1 | inconclusive: 99.6%
18 | FC(F)(F)c1ccc(-n2ccnc2)nc1 | inactive: 85.8%
19 | COc1ccc(Cn2c(=S)[nH]c3ccsc3c2=O)cc1 | inactive: 101%
20 | CC(c1ccccc1)c1nnc(NC(=O)c2ccc3c(c2)OCO3)s1 (configuration not stated) | inconclusive: 96.4%
21 | O=C(O)[C@@H]1Cc2ccccc2N1 | inconclusive: 90.8%
22 | Cc1ccc(C)c(NNC(=O)C(=O)NNc2cc(C)ccc2C)c1 | inconclusive: 86.4%
23 | CCCc1c(C(=O)Nc2cc(C)on2)cnn1-c1ccccc1 | inconclusive: 110%

Row | Structure (SMILES) | binding response (% of control)
24 | CSc1nc(N)n2nc(-c3ccc(Cl)cc3)cc2n1 | inconclusive: 92.7%
25 | O=C(NNc1nc(-c2ccccc2)cs1)c1cccs1 | inconclusive: 78.2%
26 | CCO[C@@H]1OC(C(=O)NC2CC2)=C[C@H](c2c[nH]c3ccccc23)[C@H]1CCCO | inconclusive: 113%
27 | C=CCc1cccc2cc(C(=O)NCCOC)c(=O)oc12 | inconclusive: 85.8%
28 | Cc1cnc(NC(=O)CCNC(=O)c2ccc([N+](=O)[O-])cc2)s1 | inactive: 100%
29 | O=C(C1CCN(S(=O)(=O)N2CCOCC2)CC1)N1CCN(c2ccccc2F)CC1 | inconclusive: 78.4%
30 | C/C=C(/C)C(=O)Nc1cccc(C2=NOC3(C2)C[C@H](C(N)=O)N(C(=O)c2ccccc2)C3)c1 (some centres not stated) | inconclusive: 98.8%
31 | CCOC(=O)C(=NCCCN1CCOCC1)NNc1cccc(C(F)(F)F)c1 | inconclusive: 97.4%
32 | COc1ccc(/C=C2\N=C(SC)N(C)C2=O)cc1 | inactive: 101%
33 | CCS(=O)(=O)c1ccc(O)c(NC(=O)/C=C/c2ccc(Cl)cc2)c1 | inconclusive: 96.8%
34 | COc1cc(O)c(C(=O)/C=C/c2ccccc2)c(OC)c1 | inconclusive: 101%
35 | CSc1nc2ccc(NS(=O)(=O)c3ccc4c(c3)OCCO4)cc2s1 | inactive: 103%
36 | Cc1ccc(C2NC(=O)CCC2[N+](=O)[O-])cc1 (configuration not stated) | inactive: 98.5%
37 | COc1ccc(-c2csc(NC(=O)COC(=O)C3=COCCO3)n2)cc1 | inactive: 112%
38 | Cc1ccc(S(=O)(=O)N2CCN(C(=O)c3ccccc3)CC2)c(C)c1NS(C)(=O)=O | inactive: 105%
39 | CCCCOCCCNC(=S)Nc1ccc(S(=O)(=O)N2CCOCC2)cc1 | inconclusive: 104%
40 | COc1ccc(C(OC(=O)c2ccco2)C(=O)NC(C)(C)C)cc1 (configuration not stated) | inconclusive: 95.5%
41 | Cc1ccc(S(=O)(=O)N2CC=C(C(=O)NCCC(C)C)CC2)cc1 | inconclusive: 55.3%
42 | COC(=O)C(C)(C(=O)OC)c1ccc(C(F)(F)F)cc1[N+](=O)[O-] | inconclusive: 121%
43 | CN1CCN(c2cc(C(F)(F)F)nc3ccc(F)cc23)CC1 | inconclusive: 117%
44 | Nc1ccc(Nc2ccccc2)c(S(=O)(=O)O)c1 | inconclusive: 159%
45 | O=C(/C=C/c1ccc(Cl)cc1)NC(=S)Nc1ccccc1C(=O)O | inconclusive: 111%
46 | Cc1cc(C)nc(S/C=C/C(=O)c2ccccc2)n1 | inconclusive: 74.7%

Reformatted: 25 of the compounds above
Row,Structure (SMILES),binding response (% of control)
19,COc1ccc(Cn2c(=S)[nH]c3ccsc3c2=O)cc1,inactive: 101%
20,CC(c1ccccc1)c1nnc(NC(=O)c2ccc3c(c2)OCO3)s1 (configuration not stated),inconclusive: 96.4%
21,O=C(O)[C@@H]1Cc2ccccc2N1,inconclusive: 90.8%
22,Cc1ccc(C)c(NNC(=O)C(=O)NNc2cc(C)ccc2C)c1,inconclusive: 86.4%
23,CCCc1c(C(=O)Nc2cc(C)on2)cnn1-c1ccccc1,inconclusive: 110%
24,CSc1nc(N)n2nc(-c3ccc(Cl)cc3)cc2n1,inconclusive: 92.7%
25,O=C(NNc1nc(-c2ccccc2)cs1)c1cccs1,inconclusive: 78.2%
26,CCO[C@@H]1OC(C(=O)NC2CC2)=C[C@H](c2c[nH]c3ccccc23)[C@H]1CCCO,inconclusive: 113%
27,C=CCc1cccc2cc(C(=O)NCCOC)c(=O)oc12,inconclusive: 85.8%
28,Cc1cnc(NC(=O)CCNC(=O)c2ccc([N+](=O)[O-])cc2)s1,inactive: 100%
29,O=C(C1CCN(S(=O)(=O)N2CCOCC2)CC1)N1CCN(c2ccccc2F)CC1,inconclusive: 78.4%
30,C/C=C(/C)C(=O)Nc1cccc(C2=NOC3(C2)C[C@H](C(N)=O)N(C(=O)c2ccccc2)C3)c1 (some centres not stated),inconclusive: 98.8%
31,CCOC(=O)C(=NCCCN1CCOCC1)NNc1cccc(C(F)(F)F)c1,inconclusive: 97.4%
32,COc1ccc(/C=C2\N=C(SC)N(C)C2=O)cc1,inactive: 101%
34,COc1cc(O)c(C(=O)/C=C/c2ccccc2)c(OC)c1,inconclusive: 101%
35,CSc1nc2ccc(NS(=O)(=O)c3ccc4c(c3)OCCO4)cc2s1,inactive: 103%
36,Cc1ccc(C2NC(=O)CCC2[N+](=O)[O-])cc1 (configuration not stated),inactive: 98.5%
37,COc1ccc(-c2csc(NC(=O)COC(=O)C3=COCCO3)n2)cc1,inactive: 112%
39,CCCCOCCCNC(=S)Nc1ccc(S(=O)(=O)N2CCOCC2)cc1,inconclusive: 104%
40,COc1ccc(C(OC(=O)c2ccco2)C(=O)NC(C)(C)C)cc1 (configuration not stated),inconclusive: 95.5%
41,Cc1ccc(S(=O)(=O)N2CC=C(C(=O)NCCC(C)C)CC2)cc1,inconclusive: 55.3%
42,COC(=O)C(C)(C(=O)OC)c1ccc(C(F)(F)F)cc1[N+](=O)[O-],inconclusive: 121%
44,Nc1ccc(Nc2ccccc2)c(S(=O)(=O)O)c1,inconclusive: 159%
45,O=C(/C=C/c1ccc(Cl)cc1)NC(=S)Nc1ccccc1C(=O)O,inconclusive: 111%
46,Cc1cc(C)nc(S/C=C/C(=O)c2ccccc2)n1,inconclusive: 74.7%

Additional results follow.

Row | Structure (SMILES) | binding response (% of control)
47 | CCOC(=O)c1c(/N=C/c2ccc(OC)cc2O)sc2c1CCN(C)C2 | inconclusive: 103%
48 | Cc1cccn2c(=O)c(/C=C3\SC(=S)NC3=O)c(NCCCN3CCOCC3)nc12 | inconclusive: 168%
49 | CCN(CC)CCNC(=O)c1ccc(-n2c(C)cc3c2CCCC3=O)cc1 | inconclusive: 89.8%
50 | CCOC(=O)c1cnc2c(C)cccc2c1Nc1cccc(C(=O)O)c1 | inconclusive: 23.1%
51 | O=C(O)CCNS(=O)(=O)c1ccc2c(c1)CCCC2 | inconclusive: 76.7%
52 | O=c1ccccn1CCOc1ccc(Cl)cc1 | inconclusive: 126%
53 | CC(=O)Nc1ccc(S(=O)(=O)N2CCN(Cc3cccs3)CC2)cc1 | inactive: 97.5%
54 | C/C(=N\NC(=O)c1ccc(N/N=C(\C)c2ccncc2)cc1)c1ccncc1 | inconclusive: 98.5%
55 | CN(Cc1ccccc1)S(=O)(=O)c1ccc(N2CCOCC2)nc1 | inconclusive: 44%
56 | COc1ccc([C@H]2C=C(C(=O)O)O[C@@H](OCc3ccc(CO)cc3)C2)cc1 | inconclusive: 117%
57 | NC(=O)Nc1ccc(Nc2ccccc2)cc1 | inconclusive: 112%
58 | O=C(Nc1c(C(=O)Nc2ccccc2)cnn1-c1ccccc1)c1ccco1 | inactive: 93%
59 | Cc1cccc(-n2c(O)c(C=Nc3cccc(O)c3)c3ccccc3c2=O)n1 | inconclusive: 130%
60 | Cn1cnc2c(=O)[nH]cc([N+](=O)[O-])c21 | inactive: 118%
61 | COc1ccc(OC)c(CCNC(=O)Cn2sc3nc(C)cc(C)c3c2=O)c1 | inactive: 92.2%
62 | Cc1nn2c(=O)c3c4c(sc3nc2n1-c1ccccc1)COC(C)(C)C4 | inconclusive: 105%
63 | CC(C)N=C(Nc1ccc(Cl)cc1)c1cccnc1 | inactive: 95.5%
64 | CC(Oc1ccccc1)C(=O)N=Nc1c(O)[nH]c2ccc(Br)cc12 (configuration not stated) | inconclusive: 104%
65 | CC1(C)OC(=O)C(=CNC(=O)c2c(F)cccc2F)C(=O)O1 | inconclusive: 92.4%
66 | O=C1c2ccccc2NC(c2ccccc2)N1CCCN1CCOCC1 (configuration not stated) | inconclusive: 54.4%
67 | CC(=O)Nc1ccc2nc3ccccc3nc2c1 | inconclusive: 59.6%
68 | CCO[C@H]1OC(C(=O)NCc2ccccc2)=C[C@@H](C2CC2)[C@@H]1CCCO | inactive: 106%
69 | CC(C)OP(=O)(OC(C)C)/C(C=O)=N\Nc1ccc([N+](=O)[O-])cc1 | inconclusive: 55.2%

Row | Structure (SMILES) | binding response (% of control)
70 | Cc1ccc2nc(C)c3c(c2c1)COC3 | active: -39.6%
71 | COc1ccc(/C(O)=C2\C(=O)C(=O)N(Cc3ccco3)C2c2cc(OC)ccc2OC)cc1 (configuration not stated) | active: 26.4%
72 | O=C(c1ccc(Cl)cc1Cl)N1CCSCC1 | inconclusive: 102%
73 | O=C(Nc1ccc(Oc2cccc(C(F)(F)F)c2)nc1)c1cccs1 | inconclusive: 27.7%
74 | CCC(c1ccccc1)c1nnc(NC(=O)c2ccco2)s1 (configuration not stated) | inconclusive: 116%
75 | CCOc1ccc(NC(=O)NC(=O)N(C(C)C)S(C)(=O)=O)cc1 | inactive: 100%
76 | Cc1cc2nc(-c3ccccn3)c(-c3ccccn3)nc2cc1C | inconclusive: 111%
77 | O=S(=O)(c1ccc(Cl)cc1)N1CCNCC1 | inconclusive: 72%
78 | Cc1[nH]c2ccccc2c1/C=N/NC(=O)CNC(=O)c1cccs1 | inconclusive: 245%
79 | O=C(Nc1ccc2oc(-c3ccncc3)nc2c1)c1ccc2c(c1)OCO2 | inconclusive: 103%
80 | Cc1ccc(NC(=O)NCC2CCN(Cc3cccc(Cl)c3)CC2)c(Cl)c1 | inconclusive: 97.5%
81 | COC(=O)c1cc(NC(=O)c2cccc(Cl)c2)c(=O)oc1/C=C/Nc1cc(C)cc(C)c1 | inactive: 104%
82 | C=CCNc1oc(/C=C/c2ccccc2)nc1C#N | inactive: 96.6%
83 | COc1cccc(-c2cc(C(F)(F)F)n3nc(C(=O)Nc4c(C)n(C)n(-c5ccccc5)c4=O)cc3n2)c1 | inconclusive: 101%
84 | Cc1ccc2cc(C)c(SCC(=O)Nc3ccc(S(=O)(=O)N4CCCC4)cc3)nc2c1 | inconclusive: 95.4%
85 | CC(=O)Nc1nc(NC(=O)C(Cl)(Cl)Cl)n(-c2ccccc2)n1 | inconclusive: 112%
86 | COc1ccc(OC)c(-c2cc(C(F)(F)F)c3c(n2)sc2c(O)cc(=O)[nH]c23)c1 | inactive: 104%
87 | CN(C)c1ccc(/C=N/NC(=O)CCc2nc3ccccc3[nH]2)cc1 | inconclusive: 79.5%
88 | Cc1ccc(-c2nc(NC(=O)c3cc(C(C)(C)C)nn3C)sc2C)cc1Cl | inconclusive: 98.2%
89 | CC(=O)Oc1ccc2oc(C)c(C(=O)N3CCOCC3)c2c1 | inactive: 95.1%
90 | COC(=O)c1cnn(-c2ccccc2)c1-n1cccc1C=O | inactive: 96.3%
91 | C/C(=N\NC(N)=O)c1ccccc1Cl | inconclusive: 93.4%
92 | C=CCNc1nc(=S)[nH]c2cc(OC)c(OC)cc12 | inconclusive: 104%
